Measurements published in PubChem BioAssay AID493014 (National Center for Advancing Translational Sciences (NCATS), 2011).
Values joined by “and” are separate entries in the source; they are usually repeats but may differ in a detail not shown here. Equal entries are not always repeated. The list shows a part of the results. Shown are side measurements of this screen, not its main read-out; they come without a call. Most of these compounds were active or inconclusive in the main read-out, so they are no random draw. Words in brackets tell the shape of the fitted curve; partial curves, single points and poor fits give uncertain potencies.

Assay: qHTS Assay to Find Inhibitors of Chronic Active B-Cell Receptor Signaling
Settings: ABC-DLBCL IkBa-CBG/CBR reporter, luminescence ratio (green luciferase fused to IkBa over red control in TMD8 lymphoma cells), 4 h
Summary of the method: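 Cell line TMD8 (human ABC DLBCL), stably expressing tet-inducible CBG68-IkBa fusion and CBR; IMDM/0.5% FBS; cpd up to 46 uM; dox induction, 4 h, 37C/5% CO2; dual luminescence; green/red ratio; MG132 control.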

[1] = measured here: CBR red luminescence, cell number

For `CN(c1ccccc1)c1nc(N)c([N+](=O)[O-])c(N2CCCCCC2)n1`, the AC50 [1] was 35.5 µM [rising, single point].

For `O=S(=O)(Cc1ccccc1)N1CCc2ccccc2C1`, the AC50 [1] was 4.47 µM [rising, partial curve, poor fit].

For `O=c1ccnc(SCc2ccccc2Cl)[nH]1`, the AC50 [1] was 10.3 µM [rising, partial curve, poor fit].

With `COc1ccc(/C=N/N2CCOCC2)cc1Cn1nc(C)c([N+](=O)[O-])c1C` the AC50 [1] was 7.08 µM [rising, full curve, poor fit].

In the case of `O=C(Cn1c(=O)n(Cc2ccco2)c(=O)c2c3c(sc21)CCCC3)Nc1ccccc1`, the AC50 [1] was 1.16 µM [falling, full curve, poor fit].

With `CN(c1ccccc1)c1nc(N)c([N+](=O)[O-])c(NCc2ccccc2)n1` the AC50 [1] was 3.16 µM [rising, full curve].

For `O=c1c(-c2ccc(O)cc2)coc2c(C3O[C@H](CO)[C@@H](O)[C@H](O)[C@H]3O)c(O)ccc12` (stereo partly drawn), the AC50 [1] was 0.631 µM [rising, full curve, poor fit].

In the case of `Oc1ccc(-c2csc(Nc3ncccn3)n2)c(O)c1`, the AC50 [1] was 14.1 µM [falling, single point].

For `Cc1ccc(NC(=O)C2C3C=CC4(CN(Cc5cccnc5)C(=O)C24)O3)cc1` (stereo not drawn), the AC50 [1] was 6.51 µM [rising, full curve].

For `O=C(NCc1ccncc1)Nc1cccc([N+](=O)[O-])c1`, the AC50 [1] was 14.1 µM [rising, single point].

With `CC(C)CC1Nc2ncnc(N3CCCCC3)c2N(Cc2ccccc2)C1=O` (stereo not drawn) the AC50 [1] was 20.6 µM [falling, single point].

In the case of `CN1C(=S)SC(/[N+]([O-])=C/c2ccc(Cl)cc2)C1(C)C` (stereo not drawn), the AC50 [1] was 12.6 µM [rising, partial curve, poor fit].

For `O=c1c2cc(NC(=S)NC3CCCC3)ccc2nc2n1CCCCC2`, the AC50 [1] was 12.6 µM [falling, single point].

With `Cc1cc2nc(/N=C(\N)NC(=O)C(C)C)nc(C)c2cc1C` the AC50 [1] was 1.12 µM [rising, partial curve, poor fit].

In the case of `CC(C(=O)Nc1ccc(F)cc1Cl)N1CCN(S(=O)(=O)c2cccs2)CC1` (stereo not drawn), the AC50 [1] was 0.00461 µM [rising, full curve, poor fit].

In the case of `C/C(=N\NC(=O)c1cccnc1)c1ccc(Br)cc1`, the AC50 [1] was 10 µM [falling, partial curve, poor fit].

In the case of `O=C1Nc2ccccc2C(O)(C(=O)NCc2ccc3c(c2)OCO3)N1c1ccc(Cl)c(Cl)c1` (stereo not drawn), the AC50 [1] was 5.62 µM [falling, full curve].

For `Cc1cc(C)c2ccc3c(C)c(C)n(C)c3c2n1`, the AC50 [1] was 6.31 µM [falling, single point].

With `Nc1nnc(/C=C/c2ccccc2)s1` the AC50 [1] was 35.5 µM [falling, partial curve, poor fit].

In the case of `COc1ccc2nc(C3CCCCC3)nc(C3CCCCC3)c2c1`, the AC50 [1] was 1.84 µM [rising, full curve].

For `CCCc1cc(C(=O)OC)c(NC(=O)CCCC(=O)O)s1`, the AC50 [1] was 35.5 µM [rising, single point].

With `COc1ccccc1-c1nc(SC)n[nH]1` the AC50 [1] was 31.6 µM [falling, single point].

With `COc1ccccc1N1CCN(C2CCCN(C(=O)c3cc(C)oc3C)C2)CC1` (stereo not drawn) the AC50 [1] was 10 µM [falling, partial curve, poor fit].

With `CC(C)n1cnc2c(Nc3ccc(C(=O)O)cc3)nc(Cl)nc21` the AC50 [1] was 6.31 µM [falling, partial curve].

In the case of `CCC1CCCCN1C(=O)CSc1nnc(-c2ccco2)o1` (stereo not drawn), the AC50 [1] was 10.3 µM [rising, partial curve, poor fit].

For `CCOC(=O)[C@H]1[C@H]2COc3cc(OC)ccc3[C@@H]2N2C(=O)c3cc(C)ccc3NC(=O)[C@@]12C`, the AC50 [1] was 0.82 µM [falling, full curve, poor fit].

With `Cc1ccsc1S(=O)(=O)N1CCC(CO)(CC2CCCCO2)CC1` (stereo not drawn) the AC50 [1] was 35.5 µM [falling, single point].

For `O=C(Cc1ccc(O)cc1)NCCNC(=S)NCc1ccccc1`, the AC50 [1] was 3.98 µM [rising, partial curve, poor fit].

For `Cc1cccc2c1-c1sc(C(=O)NCCCN3CCCC(C)C3)cc1CO2` (stereo not drawn), the AC50 [1] was 35.5 µM [falling, single point].

In the case of `Cc1ccc(Oc2ccc(S(=O)(=O)Nc3ccc(C(=O)O)cc3)cc2)cc1`, the AC50 [1] was 29.1 µM [falling, single point].

With `COc1ccc(NC(=O)COC(=O)c2ccc(-n3cnnn3)cc2)cc1Cl` the AC50 [1] was 25.9 µM [rising, single point].

In the case of `Cc1nc2ccc(S(=O)(=O)Nc3cccc(-c4nc5cccnc5s4)c3)cc2s1`, the AC50 [1] was 32.6 µM [falling, single point] and the AC50 (measured here: IkBa-CBG green luminescence) was 4.61 µM [falling, full curve].

In the case of `Nc1cc(C(=O)O)ccc1Nc1ccc(F)c(F)c1`, the AC50 [1] was 3.26 µM [falling, single point].

In the case of `COc1ccc(-c2csc(N3CCC(C(N)=O)CC3)n2)cc1`, the AC50 [1] was 4.61 µM [rising, partial curve].

In the case of `CN(c1ccc(OC(=O)CN2C(=O)NC3(CCCC3)C2=O)cc1)S(=O)(=O)c1ccccc1`, the AC50 [1] was 10.3 µM [rising, partial curve].

In the case of `COc1ccc(NC(=O)CSc2nnc(NC(=O)NC3CCCCC3)s2)cc1OC`, the AC50 [1] was 3.98 µM [falling, full curve].

With `CCOC(=O)/C(C#N)=C/c1c(N2CCN(c3ccccc3)CC2)nc2ccccn2c1=O` the AC50 [1] was 0.501 µM [rising, full curve, poor fit].

For `COc1ccc(Cl)cc1C(=O)OCC(=O)N(C)CC(=O)Nc1ccc(F)cc1`, the AC50 [1] was 20.6 µM [falling, single point].

For `CCCCCCCCCCC[N+](C)(C)CC/C=C1/c2ccccc2Sc2ccc(Cl)cc21`, the AC50 [1] was 3.16 µM [falling, partial curve].

In the case of `Cn1cccc1/C=N/NC(=O)CSc1nc2ccccc2n1C`, the AC50 [1] was 10 µM [rising, partial curve, poor fit].

For `CCOC(=O)c1cnc2c(ccc3ccccc32)c1NCCCN(C)C`, the AC50 [1] was 15.8 µM [falling, single point].

For `COc1ccc(C2c3ccc(O)cc3Oc3ncn4nc(-c5ccco5)nc4c32)cc1OC` (stereo not drawn), the AC50 [1] was 7.94 µM [falling, partial curve].

With `CCOC(=O)C(Sc1ncnc2c1sc1nc(N3CCOCC3)c3c(c12)CCCC3)c1ccccc1` (stereo not drawn) the AC50 [1] was 12.6 µM [rising, single point].

With `CCOC(=O)N1CCN(c2c(NCCCN3CCCCCC3)c(=O)c2=O)CC1` the AC50 [1] was 11.6 µM [falling, single point].

With `COc1cccc(Cn2c(NCc3cccnc3)nc3c2c(=O)n(C)c(=O)n3C)c1` the AC50 [1] was 0.282 µM [falling, full curve, poor fit].

For `O=C1C(=O)N(CCN2CCOCC2)C(c2ccc([N+](=O)[O-])cc2)/C1=C(/O)c1ccc2c(c1)OCO2` (stereo not drawn), the AC50 [1] was 0.355 µM [rising, full curve, poor fit].

With `COC(=O)c1cc(NC(=O)CSc2nncn2C)cc(C(=O)OC)c1` the AC50 [1] was 3.66 µM [falling, single point].

In the case of `Cc1cc(Cl)cc2c1NC(=O)[C@]21[C@@H]2C(=O)N(Cc3ccccc3)C(=O)[C@@H]2[C@@H]2CCCN21`, the AC50 [1] was 35.5 µM [falling, single point] and 20.6 µM [falling, partial curve].

With `Cc1cc(C)c(S(=O)(=O)N2CCN(c3ccc([N+](=O)[O-])c(-n4nc(C)cc4C)c3)CC2)c(C)c1` the AC50 [1] was 3.98 µM [falling, partial curve, poor fit].

For `O=C1Nc2ccc(Br)cc2C1(O)Cc1ccccn1` (stereo not drawn), the AC50 [1] was 14.6 µM [rising, partial curve, poor fit].

For `CCC(Cc1ccccc1)NC(=O)CN1C(=O)CSc2ncccc21` (stereo not drawn), the AC50 [1] was 5.17 µM [falling, partial curve, poor fit].

For `CCC1SC(=NC(=O)c2ccc(Cl)c(Cl)c2)NC1=O` (stereo not drawn), the AC50 [1] was 2.31 µM [rising, partial curve, poor fit].

In the case of `O=C(O)c1ccc(N/N=C/c2ccc3ncccc3c2)cc1`, the AC50 [1] was 0.0517 µM [falling, full curve].

For `O=C(Nc1cccnc1)c1cc(-c2ccccc2)on1`, the AC50 [1] was 5.8 µM [falling, partial curve].

In the case of `O=[N+]([O-])c1ccc(O)c(Nc2ncnc3ccc(Br)cc23)c1`, the AC50 [1] was 25.1 µM [rising, single point].

In the case of `CCc1cc(=O)oc2c3c(cc(OCC(=O)NCc4cccnc4)c12)OC(C)(C)CC3`, the AC50 [1] was 35.5 µM [falling, single point].

With `Cc1cc(C)c(C)c(S(=O)(=O)N[C@@H](C)C(=O)OCC(=O)NC2CCCC(C)C2C)c1C` (stereo partly drawn) the AC50 [1] was 29.1 µM [rising, single point].

In the case of `CCC1=C(OC(=O)N(CC)CC)N2C(=O)OC(=NCCc3c[nH]c4ccccc34)[C@]2(Cc2ccccc2)[C@H]2C1=CC[C@H]1C(=O)N(CC)C(=O)[C@H]12`, the AC50 [1] was 12.6 µM [falling, single point].

With `Cc1ccc(Cl)cc1N1CCN(C(=O)CNC(=O)c2ccc(Br)o2)CC1` the AC50 [1] was 7.31 µM [falling, partial curve].

For `CC/C(=N\NC(=O)c1ccc(-c2ccccc2)cc1)C12CC3CC(CC(C3)C1)C2`, the AC50 [1] was 8.2 µM [falling, partial curve, poor fit].

With `Cn1c(SCC(=O)Nc2sccc2C(N)=O)nc2ccccc2c1=O` the AC50 [1] was 0.82 µM [falling, full curve, poor fit].

In the case of `O=[N+]([O-])c1ccc(N=Nc2ccc(O)cc2O)cc1`, the AC50 [1] was 0.326 µM [rising, full curve, poor fit].
